# In PubChem BioAssay AID445 (National Center for Advancing Translational Sciences (NCATS), 2006):
# The list shows a part of the results. Further columns of the screen follow, without active or inactive calls. Most of these compounds were active or inconclusive in the main read-out, so they are no random draw. The note in brackets gives the kind of curve behind each potency; many fits are weak.
# Assay: IkB Signaling
# Details: ABC-DLBCL IkBa-CBG/CBR dual luciferase ratio (green luciferase fused to IkBa over red control in OCI-Ly3 lymphoma cells), 4 h; measured here: control luc red channel unless noted
# In short: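 Luminescence ratio of IκBα-fused green versus native red beetle luciferase in OCI-Ly3 cells, 4 h post-doxycycline with compound; red signal alone, scaled from basal (0%) to zero light (-100%), flagged nonspecific or cytotoxic effects.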
row,SMILES,AC50
1,COc1ccc(C(=O)Nc2nc3ccccc3[nH]2)cc1OC,"12.6 µM [falling, partial curve]"
2,Cc1ccccc1NC(=O)CSc1nc(-c2ccccc2C)nc2cc(=O)[nH]n12,"31.6 µM [falling, single point]"
3,COc1ccccc1N(CC(=O)NCCSCc1ccccc1)S(=O)(=O)c1ccc(C)cc1,"12.6 µM [falling, partial curve]"
4,CCc1ccc(C(=O)c2cn(CC(=O)Nc3ccc(F)cc3)c3ccc(OC)cc3c2=O)cc1,"31.6 µM [falling, partial curve]"
5,COc1ccc(NC(=O)Cn2c(=O)n(C(C)C)c(=O)c3oc4ccccc4c32)cc1Cl,"20 µM [falling, single point]"
6,COc1ccc(C(=O)Cn2nnc(-c3ccccc3NC(=O)c3ccco3)n2)cc1,"10 µM [falling, partial curve]"
7,Cc1cccc(OCC(=O)OCc2cc(=O)n3nc(C4CCCCC4)sc3n2)c1,"0.0501 µM [rising, full curve, poor fit]"
8,O=C(C1CCCN(S(=O)(=O)Cc2ccccc2)C1)N1CCc2ccccc21 (stereo not drawn),"39.8 µM [falling, single point]"
9,COc1ccc(C(=O)COC(=O)c2cccc(NC(=O)c3ccc(OC)c(OC)c3)c2)cc1,"7.94 µM [falling, partial curve]"
10,COc1ccc(C(=O)c2cn(Cc3ccc(F)cc3)c3ccc(C)cc3c2=O)cc1,"31.6 µM [falling, single point]"
11,COc1cccc(C(=O)/C=C/Nc2cc(C)ccc2O)c1,"39.8 µM [falling, single point]"
12,Cc1ccc(CNC(=O)CCc2c(C)nn(-c3ccc(N4CCCCC4)nn3)c2C)cc1,"10 µM [falling, partial curve]"
13,Cc1ccc(-c2nc3ccccn3c2Nc2ccc3c(c2)OCO3)cc1,"39.8 µM [falling, single point]"
14,O=C(NC1CCCCCC1)C1CCN(C(=O)N2CCOc3ccccc32)CC1,"15.8 µM [falling, partial curve]"
15,COCCNC(=O)c1c(C)oc2nc(C)nc(N3CCOCC3)c12,"3.16 µM [rising, single point]"
16,O=C(O)C1CCCCC1C(=O)Nc1ccccc1Nc1ccccc1 (stereo not drawn),"12.6 µM [falling, partial curve]"
17,COc1ccc(C2c3c(-c4c(C)cc(C)cc4O)n[nH]c3C(=O)N2Cc2ccco2)cc1 (stereo not drawn),"31.6 µM [falling, single point]"
18,CCOC(=O)c1c(NC(=O)c2ccccc2Cl)sc2c1CCCC2,"12.6 µM [falling, single point]"

# Nos. 14 through 15 of the list above:
row,SMILES,AC50
14,O=C(NC1CCCCCC1)C1CCN(C(=O)N2CCOc3ccccc32)CC1,"15.8 µM [falling, partial curve]"
15,COCCNC(=O)c1c(C)oc2nc(C)nc(N3CCOCC3)c12,"3.16 µM [rising, single point]"
